Reference: the supplement of paper PMC7024190
Structures can show the parent of a compound that is named as a salt. This is one part of the list. Single values are uncertain here, since repeats match poorly.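 A first-round screen of about ten thousand compounds sought those raising reporter output, using human embryonic kidney cells briefly transfected with a plasmid carrying a Renilla luciferase gene driven by the HSV-TK promoter.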

System: HEK 293FT
Experiment: log relative Renilla luciferase luminescence (reporter expression vs reference, reference not stated) (log (base not stated)); higher = higher recombinant reporter expression
Conditions: 10 µM; time after transfection 48 h

SMILES | log
N=C(N)NCC1COC2(CCCCC2)O1 (stereo not given) [Guanadrel sulfate] | -0.0734
CC1(C)OC(=O)NC1=O [Dimethadione] | -0.167
Nc1ccc(C(=O)NCC(=O)O)cc1 [Aminohippuric acid] | -0.0105
COc1ccc(NS(=O)(=O)c2ccc(N)cc2)nn1 [Sulfamethoxypyridazine] | -0.146
CCC[C@H](N[C@@H](C)C(=O)N1[C@H](C(=O)O)C[C@@H]2CCCC[C@@H]21)C(=O)OCC [Perindopril] | 0.0346
Cn1nnnc1SCC1=C(C(=O)O)N2C(=O)[C@@H](NC(=O)[C@H](O)c3ccccc3)[C@H]2SC1 [Cefamandole sodium salt] | -0.0818
O=C(CCCN1CC=C(n2c(=O)[nH]c3ccccc32)CC1)c1ccc(F)cc1 [Droperidol] | -0.00861
CCN(CC)CCNC(=O)c1cc(S(C)(=O)=O)ccc1OC [Tiapride hydrochloride] | 0.105
C#CCN(C)Cc1ccccc1 [Pargyline hydrochloride] | 0.0407
CCn1cc(C(=O)O)c(=O)c2ccc(C)nc21 [Nalidixic acid sodium salt] | 0.139
COc1ccc2cc(CCC(C)=O)ccc2c1 [Nabumetone] | 0.117
CC(=O)N[C@@H](CC(=O)N[C@@H](CCC(=O)O)C(=O)O)C(=O)O [Spaglumic acid] | 0.113
Cc1ccc(S(=O)(=O)NC(=O)NN2CC3CCCC3C2)cc1 (stereo not given) [Gliclazide] | 0.145
CCn1cc(C(=O)O)c(=O)c2cnc(N3CCNCC3)nc21 [Pipemidic acid] | 0.0695
COc1cc2nc(N3CCN(C(=O)c4ccco4)CC3)nc(N)c2cc1OC [Prazosin hydrochloride] | 0.0221
COc1nc(C)nc(Cl)c1NC1=NCCN1 [Moxonidine] | -0.0785
COc1ccc2[nH]cc(CCNC(C)=O)c2c1 [Melatonin] | 0.0484
NC[C@H]1O[C@H](O[C@H]2[C@H](O[C@@H]3O[C@H](CO)[C@@H](O)[C@H]3O)[C@@H](O)[C@H](N)C[C@@H]2N)[C@H](N)[C@@H](O)[C@@H]1O [Ribostamycin sulfate salt] | -0.181
COc1ccc(C(=O)NCc2cccnc2)cc1C(=O)NCc1cccnc1 [Picotamide monohydrate] | 0.00465
CCN(Cc1ccncc1)C(=O)C(CO)c1ccccc1 (stereo not given) [Tropicamide] | 0.0655
CN(C)CCOC1=Cc2ccccc2Sc2ccc(Cl)cc21 [Zotepine] | -0.54
O=C(NCCNCC(O)COc1ccc(O)cc1)N1CCOCC1 (stereo not given) [Xamoterol hemifumarate] | 0.086
OC(CCN1CCCCC1)(c1ccccc1)C1CC2C=CC1C2 (stereo not given) [Biperiden hydrochloride] | -0.0359
Cc1ncc([N+](=O)[O-])n1CCO [Metronidazole] | -0.443
CCN(CC)CC#CCOC(=O)C(O)(c1ccccc1)C1CCCCC1 (stereo not given) [Oxybutynin chloride] | 0.0769

SMILES | log
CN1C2CCCC1CC(NC(=O)c1nn(C)c3ccccc13)C2 (stereo not given) [Granisetron] | 0.02
CC(C)N1CCN(c2ccc(OCC3COC(Cn4cncn4)(c4ccc(Cl)cc4Cl)O3)cc2)CC1 (stereo not given) [Terconazole] | 0.02
Nc1nc(=S)c2ncn([C@@H]3O[C@H](CO)[C@@H](O)[C@H]3O)c2[nH]1 [Thioguanosine] | 0.0863
CC(C)NCC(O)COc1ccc(COCCOC(C)C)cc1 (stereo not given) [Bisoprolol fumarate] | -0.403
CC(=O)N[C@@H](CC(C)C)C(=O)O [N-Acetyl-L-leucine] | 0.0842
Nc1nc(=O)c2nc(CNc3ccc(C(=O)N[C@@H](CCC(=O)O)C(=O)O)cc3)cnc2[nH]1 [Folic acid] | -0.486
CC[C@H]1OC(=O)[C@H](C)[C@@H](O[C@H]2C[C@@](C)(OC)[C@@H](O)[C@H](C)O2)[C@H](C)[C@@H](O[C@@H]2O[C@H](C)C[C@H](N(C)C)[C@H]2O)[C@](C)(O)C[C@@H](C)/C(=N\OCOCCOC)[C@H](C)[C@@H](O)[C@]1(C)O [Roxithromycin] | 0.024
Nc1nc(F)nc2c1ncn2[C@@H]1O[C@H](CO)[C@@H](O)[C@@H]1O [Fludarabine] | -0.0681
Clc1ccc(C(Cn2ccnc2)OCc2c(Cl)cccc2Cl)c(Cl)c1 (stereo not given) [Isoconazole] | -0.00359
NC(=O)N1c2ccccc2C=Cc2ccccc21 [Carbamazepine] | 0.16
CN(C)CCN(Cc1cccs1)c1ccccn1 [Methapyrilene hydrochloride] | -0.0838
COc1c(O[C@@H]2O[C@H](CO)[C@@H](O)[C@H](O)[C@H]2O)cc2c(c1OC)-c1ccc(SC)c(=O)cc1[C@@H](NC(C)=O)CC2 [Thiocolchicoside] | 0.0241
O=C(Cn1ccnc1[N+](=O)[O-])NCCO [Etanidazole] | -0.0785
CO[C@H]1/C=C/O[C@@]2(C)Oc3c(C)c(O)c4c(c3C2=O)C2=NC3(CCN(CC(C)C)CC3)NC2=C(NC(=O)/C(C)=C\C=C\[C@H](C)[C@H](O)[C@@H](C)[C@@H](O)[C@@H](C)[C@H](OC(C)=O)[C@@H]1C)C4=O [Rifabutin] | 0.0422
Cc1scc2c1N(C(=O)CN1CCN(C)CC1)c1ccccc1NC2=O [Telenzepine dihydrochloride] | -0.752
Cn1c(=O)c2nc[nH]c2n(C)c1=O [Theophylline monohydrate] | 0.0399
C=C1c2cccc(O)c2C(=O)C2=C(O)[C@]3(O)C(=O)C(C(N)=O)=C(O)[C@@H](N(C)C)[C@@H]3[C@@H](O)[C@H]12 [Methacycline hydrochloride] | 0.126
c1ccc(C2CN3CCSC3=N2)cc1 (stereo not given) [Tetramisole hydrochloride] | 0.0283
CCCN[C@H]1CCc2nc(N)sc2C1 [Pramipexole] | 0.0136
CCOC(=O)c1ccc(OC(=O)CCCCCNC(=N)N)cc1 [Gabexate mesilate] | -0.0196
Cc1cc(=O)oc2cc(O)ccc12 [Hymecromone] | -0.166
CC(COc1ccccc1)N(CCCl)Cc1ccccc1 (stereo not given) [Phenoxybenzamine hydrochloride] | -0.0555
COc1ccc(CN(CCN(C)C)c2ccccn2)cc1 [Pyrilamine maleate] | 0.109
CCCNC(C)C(=O)Nc1ccccc1C (stereo not given) [Prilocaine hydrochloride] | 0.0466
CCCCC[C@H](O)/C=C/[C@@H]1[C@@H](C/C=C\CCCC(=O)O)[C@@H](O)C[C@H]1O [Dinoprost trometamol] | -0.058

Another view of some results above.
SMILES	log
Clc1ccc(C(Cn2ccnc2)OCc2c(Cl)cccc2Cl)c(Cl)c1 (stereo not given) [Isoconazole]	-0.00359
NC(=O)N1c2ccccc2C=Cc2ccccc21 [Carbamazepine]	0.16
CN(C)CCN(Cc1cccs1)c1ccccn1 [Methapyrilene hydrochloride]	-0.0838
COc1c(O[C@@H]2O[C@H](CO)[C@@H](O)[C@H](O)[C@H]2O)cc2c(c1OC)-c1ccc(SC)c(=O)cc1[C@@H](NC(C)=O)CC2 [Thiocolchicoside]	0.0241
O=C(Cn1ccnc1[N+](=O)[O-])NCCO [Etanidazole]	-0.0785
CO[C@H]1/C=C/O[C@@]2(C)Oc3c(C)c(O)c4c(c3C2=O)C2=NC3(CCN(CC(C)C)CC3)NC2=C(NC(=O)/C(C)=C\C=C\[C@H](C)[C@H](O)[C@@H](C)[C@@H](O)[C@@H](C)[C@H](OC(C)=O)[C@@H]1C)C4=O [Rifabutin]	0.0422
Cc1scc2c1N(C(=O)CN1CCN(C)CC1)c1ccccc1NC2=O [Telenzepine dihydrochloride]	-0.752

Further records follow:

SMILES | log
CC(=O)c1ccc(S(=O)(=O)NC(=O)NC2CCCCC2)cc1 [Acetohexamide] | 0.205
CCOC(=O)OC(C)OC(=O)[C@@H]1N2C(=O)[C@@H](NC(=O)[C@H](N)c3ccccc3)[C@H]2SC1(C)C (stereo not given in full) [Bacampicillin hydrochloride] | -0.0555
CCOC(=O)[C@H](CCc1ccccc1)N[C@H]1CCc2ccccc2N(CC(=O)O)C1=O [Benazepril HCl] | -0.818
COC1=C(OC)C(=O)C(CCCCCCCCCCO)=C(C)C1=O [Idebenone] | -0.015
NCCCC[C@H](N[C@@H](CCc1ccccc1)C(=O)O)C(=O)N1CCC[C@H]1C(=O)O [Lisinopril] | -0.296
O=C(Nc1cccc2c(=O)cc(-c3nnn[nH]3)oc12)c1ccc(OCCCCc2ccccc2)cc1 [Pranlukast] | -0.323
CC(C)(C)NC[C@H](O)COc1nsnc1N1CCOCC1 [Timolol maleate salt] | -0.00154
Cc1nnc(NS(=O)(=O)c2ccc(N)cc2)s1 [Sulfamethizole] | -0.121
CCN1CCC[C@H]1CNC(=O)c1c(OC)ccc(Br)c1OC [Remoxipride Hydrochloride] | -0.0733
CC1CC(OC(=O)C(O)c2ccccc2)CC(C)(C)N1C (stereo not given) [Eucatropine hydrochloride] | -0.0256
Cc1cnc(NC(=O)C2=C(O)c3ccccc3S(=O)(=O)N2C)s1 [Meloxicam] | 0.102
O=C(O)COC(=O)Cc1ccccc1Nc1c(Cl)cccc1Cl [Aceclofenac] | 0.0159
O=C(O)/C=C/c1ccc(Cn2ccnc2)cc1 [Ozagrel hydrochloride] | -0.356
CCCc1nc(C)c2c(=O)nc(-c3cc(S(=O)(=O)N4CCN(CC)CC4)ccc3OCC)[nH]n12 [Vardenafil] | 0.0136
CCn1nc(C(=O)O)c(=O)c2cc3c(cc21)OCO3 [Cinoxacin] | 0.0575
Cc1cc(/C=C/c2ccc3cc(N(C)C)ccc3[n+]2C)c(C)n1-c1ccccc1 [Pyrvinium pamoate] | -1.22
CCCCNc1ccc(C(=O)OCCOCCOCCOCCOCCOCCOCCOCCOCCOC)cc1 [Benzonatate] | -0.0432
COCCOC(=O)C1=C(C)NC(C)=C(C(=O)OC/C=C/c2ccccc2)C1c1cccc([N+](=O)[O-])c1 (stereo not given) [Cilnidipine] | -0.445
CCN1CCN(C(=O)N[C@@H](C(=O)N[C@@H]2C(=O)N3C(C(=O)O)=C(CSc4nnnn4C)CS[C@H]23)c2ccc(O)cc2)C(=O)C1=O [Cefoperazone dihydrate] | -0.2
CN(C)CCOc1ccc(/C(=C(/CCCl)c2ccccc2)c2ccccc2)cc1 [Toremifene] | 0.0967
COC(=O)Nc1nc2ccc(SC(C)C)cc2[nH]1 [Methiazole] | 0.148
C=C1/C(=C\C=C2/CCC[C@]3(C)[C@@H]([C@H](C)/C=C/[C@@H](O)C4CC4)CC[C@@H]23)C[C@@H](O)C[C@@H]1O [Calcipotriene] | 0.0542
Cc1ccc(Cl)c(Nc2ccccc2C(=O)O)c1Cl [Meclofenamic acid sodium salt monohydrate] | 0.13
O=C(NCCO[N+](=O)[O-])c1cccnc1 [Nicorandil] | 0.0781
CC1=Nc2ccc(Cl)cc2S(=O)(=O)N1 [Diazoxide] | -0.00861
